# PubChem BioAssay AID2685 (National Center for Advancing Translational Sciences (NCATS), 2010)
# About 2,100 (0.66%) of roughly 320,000 compounds were called active. Inconclusive results, whose numbers are uncertain, are shown with a selection of clear calls. Calls follow the shape of the dose curve; as a rule, active = well fitted inhibition curve with a large enough effect in the signal ratio, with a control signal flat (not every such curve was filed as active); inconclusive = small, poorly fitted or top-dose-only effect, or effect the other way, or a change in a side signal; inactive = flat fitted curve, though single readings scatter; the % refers to the signal ratio. Potencies of inconclusive entries are doubtful fits and often do not repeat.
# Assay: qHTS Assay for Lipid Storage Modulators in Drosophila S3 Cells
# Details: BODIPY lipid droplet fluorescence, 18-24 h, cells fed with added oleic acid; lipid storage change, negative = inhibition: at 46.1 µM (top of the series) unless noted
# Procedure, shortened: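 Drosophila S3 cells loaded with oleic acid (400 uM, as added) and compounds at several concentrations; lipid droplets imaged by 488-nm laser-scanning cytometry, 500–530 nm intensity and object ratio to cell channel. Percent activity normalized to 20 uM Triacsin C.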
# % is scaled to controls: 0 for no effect and ±100 for the full control effect; potency is read from the fitted curve at half-maximal effect.
SMILES,"lipid storage change, negative = inhibition",Potency
N#CCC(=O)NCC1(c2ccccc2)CCCC1,inconclusive: 14.7%,–
COc1cc(C(C)=O)ccc1Oc1ncnc2c1cnn2-c1ccccc1,inconclusive: 3.24%,–
C[C@@H]1CC=C[C@H]2[C@H]1C(=O)N(Cc1ccccc1)[C@H]2c1cccc([N+](=O)[O-])c1,inconclusive: 4.27%,–
CC(=O)NC1=NN(C(C)=O)C2(CCCC2)S1,–,"inconclusive: 29.1 µM [cytotoxic, single point]"
O=C(CCC(=O)Nc1nnc(C2CCCCC2)s1)NCc1cccs1,inconclusive: 26.1%,–
C=CCN(c1ccccc1Cl)S(=O)(=O)c1cc(C(=O)N2CCCC2)ccc1Cl,inconclusive: 7.86%,–
O=C(COC(=O)/C=C/c1ccc(Br)o1)NC1CCCCC1,–,"inconclusive: 29.1 µM [activator, single point]"
CCN1C(=O)[C@H]2[C@@H](c3ccc(-c4ccc(OC)cc4)c(OC)c3)N[C@@](C)(C(=O)OC)[C@H]2C1=O,inconclusive: 2.91%,–
CC(=O)CC(=O)Nc1ncccn1,inconclusive: 39.2%,–
COc1ccc(N(CC(=O)NCc2ccccc2OC)S(=O)(=O)c2ccc(C)cc2)cc1Cl,inconclusive: -72.8%,–
O=C(COc1ccccc1)NC1CCSC1=O (stereo unspecified),inconclusive: -50.8% [cytotoxic] [at 0.369 µM],–
O=S(=O)(c1cccc(Cl)c1Cl)N1CCCCC1,inconclusive: -69.3%,–
CCN(CC)CCn1nc2c3c(cccc3c1=O)-c1ccccc1-2,inconclusive: -68.5%,–
N#CC1=C2SCN(c3ccccc3)CN2C(=O)CC1c1cccs1 (stereo unspecified),–,"inconclusive: 0.651 µM [activator, single point]"
Cc1nn(C)c(C)c1CNC(=O)c1cnn2c1NC(c1ccccc1)CC2C(F)(F)F (stereo unspecified),inconclusive: -7.35%,–
CC1CCN(C(=O)CN(c2cccc(F)c2)S(C)(=O)=O)CC1,inconclusive: 1.46%,–
CCn1c(SCC(=O)N2CCOCC2)nc(O)cc1=O,inconclusive: 7.42%,–
O=C(Nc1cccc(F)c1)c1ccc2c(c1)OCCO2,inconclusive: 25.6%,–
CC(=O)c1ccc(-n2nnnc2SCC(=O)Nc2sc(C)c(C)c2C#N)cc1,inconclusive: 0.487%,–
CCCS(=O)(=O)c1c(S(=O)(=O)CCC)c2c(N)cccn2c1C(=O)c1ccccc1,–,"inconclusive: 6.51 µM [activator, single point]"
CN(C)/C=N/S(=O)(=O)c1ccc(Cl)cc1,inconclusive: -16.8%,–
CC(=O)/C(=N\Nc1cccc(Cl)c1)Sc1cccc2cccnc12,inconclusive: 24.5%,–
CC(=O)c1c(C)[nH]c(C(=O)OCC(=O)Nc2ncc(Cl)c(C)c2Cl)c1C,–,"inconclusive: 7.31 µM [activator, partial curve]"
COc1cccc(NC(=O)Nc2ccc3nsnc3c2)c1,inconclusive: 36.3%,–
COc1ccc(/C=N/NC(=O)c2ccccc2O)cc1CN1CCOCC1,inconclusive: -30.1%,–
CCCn1nc2cc(C(=O)NCc3ccccc3)ccc2c1OCC,inconclusive: -26.4%,–

SMILES,"lipid storage change, negative = inhibition",Potency
CN(Cc1ccccc1)C(=O)CCC1CCN(C(=O)c2ccccc2C(F)(F)F)CC1,–,"inconclusive: 0.0651 µM [falling, full curve, poor fit]"
O=C(Nc1cccc(O)c1)c1cc(-c2cccs2)on1,–,"inconclusive: 20.6 µM [falling, single point]"
NC(=O)c1nsc(C(=O)N(c2ccccc2)C(C(=O)NCC2CCCO2)c2ccc(F)cc2)c1N (stereo unspecified),inconclusive: -38%,–
CCCc1nc2ccccc2c(=O)n1/N=C/c1c(C)[nH]n(-c2ccc(C)cc2)c1=O,–,"inconclusive: 0.731 µM [activator, full curve]"
CCc1ccc(C2CC(c3ccc(C)cc3)Nc3nc(N)nn32)cc1 (stereo unspecified),inconclusive: 26%,–
O=c1cc(CN2CCC(Cc3ccccc3)CC2)nc2sccn12,inconclusive: -8.02%,–
COc1ncc(-c2ccc3c(c2)S(=O)(=O)c2cccc(C(=O)O)c2C3=O)cn1,–,"inconclusive: 3.66 µM [falling, partial curve]"
COC(=O)C1=C(C)C(c2cccs2)NC(=O)N1C (stereo unspecified),inactive,–
COc1ccc(CCNCC(=O)Nc2ccc(C)c(S(=O)(=O)N(C)C)c2)cc1,inconclusive: -6.02%,–
O=C(CSc1ccccc1F)NCC1(N2CCCCC2)CCCCC1,–,"inconclusive: 29.1 µM [activator, single point]"
CCOc1cccc(CNc2ccc(O)cc2)c1OCc1ccccc1Cl,–,"inconclusive: 29.1 µM [cytotoxic, single point]"
CN1CCN(c2ccc([N+](=O)[O-])cc2/C=N/NC(=O)c2ccc(F)cc2)CC1,inconclusive: 130%,–
Cc1ccc(C)c(S(=O)(=O)N2CCN(C(=O)CNC(=O)c3ccc4ccccc4c3)CC2)c1,inconclusive: 42.8%,–
O=C(CSc1nnc(-c2ccco2)o1)Nc1c(F)cccc1F,inconclusive: -4.29%,–
N#C/C(=C\c1c(Oc2ccccc2F)nc2ccccn2c1=O)C(=O)NC1CCS(=O)(=O)C1 (stereo unspecified),–,"inconclusive: 29.1 µM [falling, single point]"
Cc1cc(C)cc(NC(=O)c2cccc(NC3=NC4CS(=O)(=O)CC4S3)c2)c1 (stereo unspecified),–,"inconclusive: 29.1 µM [falling, single point]"
CNC(=S)Nc1cc(OC)ccc1OC,inconclusive: -17.6%,–
Cc1ccccc1OCC(=O)N/N=C1\SCC(=O)N1Cc1ccccc1,–,"inconclusive: 29.1 µM [activator, single point]"
CCN(CC)CCOC(=O)c1ccc(Cl)cc1,inconclusive: -0.902%,–
Cc1onc(-c2c(F)cccc2Cl)c1C(=O)NCc1ccc2c(c1)OCO2,inconclusive: 8.74%,–
COC(=O)c1cc(S(=O)(=O)NCc2ccc(S(N)(=O)=O)cc2)oc1C,inconclusive: -54.2%,–
CCSc1nc(C)cc(Oc2ccc(=O)n(C)n2)n1,inconclusive: 22.2%,–
COc1ccccc1C(=O)Nc1ccc(S(=O)(=O)N2CCc3ccccc32)cc1,–,"inconclusive: 2.91 µM [activator, full curve]"
N#C/C(=C\c1ccc(Cl)cc1)c1nc(-c2ccco2)cs1,–,"inconclusive: 16.4 µM [falling, single point]"
O=C1CC(c2ccco2)CC(O)=C1C=NCCN1CCNCC1 (stereo unspecified),inconclusive: -12.3%,–
COc1cc(CCCN2CCNC[C@@H]2C(C)O)cc(OC)c1OC (stereo partly specified),–,"inconclusive: 23.1 µM [activator, single point]"

# 17 neighbouring entries from above, for reference:
SMILES,"lipid storage change, negative = inhibition",Potency
CCc1ccc(C2CC(c3ccc(C)cc3)Nc3nc(N)nn32)cc1 (stereo unspecified),inconclusive: 26%,–
O=c1cc(CN2CCC(Cc3ccccc3)CC2)nc2sccn12,inconclusive: -8.02%,–
COc1ncc(-c2ccc3c(c2)S(=O)(=O)c2cccc(C(=O)O)c2C3=O)cn1,–,"inconclusive: 3.66 µM [falling, partial curve]"
COC(=O)C1=C(C)C(c2cccs2)NC(=O)N1C (stereo unspecified),inactive,–
COc1ccc(CCNCC(=O)Nc2ccc(C)c(S(=O)(=O)N(C)C)c2)cc1,inconclusive: -6.02%,–
O=C(CSc1ccccc1F)NCC1(N2CCCCC2)CCCCC1,–,"inconclusive: 29.1 µM [activator, single point]"
CCOc1cccc(CNc2ccc(O)cc2)c1OCc1ccccc1Cl,–,"inconclusive: 29.1 µM [cytotoxic, single point]"
CN1CCN(c2ccc([N+](=O)[O-])cc2/C=N/NC(=O)c2ccc(F)cc2)CC1,inconclusive: 130%,–
Cc1ccc(C)c(S(=O)(=O)N2CCN(C(=O)CNC(=O)c3ccc4ccccc4c3)CC2)c1,inconclusive: 42.8%,–
O=C(CSc1nnc(-c2ccco2)o1)Nc1c(F)cccc1F,inconclusive: -4.29%,–
N#C/C(=C\c1c(Oc2ccccc2F)nc2ccccn2c1=O)C(=O)NC1CCS(=O)(=O)C1 (stereo unspecified),–,"inconclusive: 29.1 µM [falling, single point]"
Cc1cc(C)cc(NC(=O)c2cccc(NC3=NC4CS(=O)(=O)CC4S3)c2)c1 (stereo unspecified),–,"inconclusive: 29.1 µM [falling, single point]"
CNC(=S)Nc1cc(OC)ccc1OC,inconclusive: -17.6%,–
Cc1ccccc1OCC(=O)N/N=C1\SCC(=O)N1Cc1ccccc1,–,"inconclusive: 29.1 µM [activator, single point]"
CCN(CC)CCOC(=O)c1ccc(Cl)cc1,inconclusive: -0.902%,–
Cc1onc(-c2c(F)cccc2Cl)c1C(=O)NCc1ccc2c(c1)OCO2,inconclusive: 8.74%,–
COC(=O)c1cc(S(=O)(=O)NCc2ccc(S(N)(=O)=O)cc2)oc1C,inconclusive: -54.2%,–

# The listing continues.

SMILES,"lipid storage change, negative = inhibition",Potency
Cc1ccc(-c2[nH]ncc2C(=O)c2ccc(Br)cc2)c(O)c1,inconclusive: -65.5%,–
S=c1nc2ccccc2c2nc(-c3cccnc3)[nH]n12,inconclusive: 10.3%,–
Cc1ccc2c(c1)NC(=O)C(CC(=O)NCCCN1CCCCC1C)O2 (stereo unspecified),inconclusive: -0.448%,–
COc1ccc(NC(=O)c2cc(C3CC3)nc3c2cnn3C(C)C)cc1OC,–,"inconclusive: 1.64 µM [falling, partial curve]"
Cc1ccc(C(=O)OCC(=O)NCc2ccco2)cc1C,–,"inconclusive: 0.58 µM [activator, single point]"
CCOc1ccc2[nH]c3nc(SCC(=O)NC4CC4)nnc3c2c1,–,"inconclusive: 0.291 µM [falling, partial curve, poor fit]"
CCCCn1c(-c2cccc(Br)c2)nc2cc3[nH]c(=O)c(C(C)C)nc3cc21,–,"inconclusive: 29.1 µM [falling, single point]"
COC(=O)c1cc(Br)c(=O)n(-c2nccs2)c1,–,"inconclusive: 0.731 µM [activator, partial curve]"
Cc1nn(Cc2noc(C(=O)NCCc3ccccn3)n2)c(C)c1Br,–,"inconclusive: 29.1 µM [falling, single point]"
COc1cc(-c2nc3sc(C)c(C)c3c(=O)o2)cc(OC)c1OC,–,"inconclusive: 29.1 µM [activator, single point]"
O=C(COc1ccc2ccccc2c1)N/N=C/C1CC=CCC1 (stereo unspecified),–,"inconclusive: 10.3 µM [activator, partial curve]"
CCOc1ccc(OCCC(=O)N(CCC2=CCCCC2)c2c(N)n(Cc3ccccc3)c(=O)[nH]c2=O)cc1,inconclusive: -48.8%,–
CCOC(=O)c1sc(Nc2ccccc2)nc1C,–,"inconclusive: 6.51 µM [cytotoxic, single point]"
Nc1ccc(-c2nnc(-c3ccc(N)cc3)o2)cc1,inconclusive: 6.18%,–
C(=N\Nc1nc2ccccc2[nH]1)/c1cccc2nccnc12,–,"inconclusive: 29.1 µM [rising, single point]"
Cc1cc(=O)[nH]n(CCO)c1=O,inconclusive: -0.008%,–
O=C1c2cccnc2C(=O)N1Cc1ccc(S(=O)(=O)NCc2ccco2)cc1,inconclusive: 93.6%,–
CCCN1C(=O)c2ccccc2NC1c1ccc(OC)cc1OC (stereo unspecified),inconclusive: 13.1%,–
CC(C)(C)C1CCc2c(sc(NC(=O)C3CC=CCC3C(=O)O)c2C#N)C1 (stereo unspecified),–,"inconclusive: 20.6 µM [activator, partial curve]"
NC(=O)Nc1ccc(C(=O)OCC(=O)Nc2cccc(S(=O)(=O)NC3=NCCC3)c2)cc1,inconclusive: 10.1%,–
CC(C)(C)c1csc(NC(=O)c2cccnc2)n1,inconclusive: -77.8%,–
CCNC(=O)CN1c2cccc3cccc(c23)S1(=O)=O,inconclusive: 30.5%,–
Cc1cc(SCC(=O)O)nc2ccccc12,inconclusive: 20%,–
CCCNC(=O)N(CCOC)CC1CCCN(C2Cc3ccccc3C2)C1 (stereo unspecified),–,"inconclusive: 5.17 µM [activator, single point]"
